Results published in PubChem BioAssay AID662 (National Center for Advancing Translational Sciences (NCATS), 2007).
The list shows a part of the results. The main result of the screen is listed elsewhere. These columns were measured beside it and carry no call. Compounds called inactive in the main read-out are mostly missing here. Words in brackets tell the shape of the fitted curve; partial curves, single points and poor fits give uncertain potencies.

experiment: Cell signaling CRE-BLA (Fsk stim); settings: CHO CRE-bla reporter (cAMP response element driving beta-lactamase), forskolin EC10, beta-lactamase ratio; measured here: 460 nm blue channel
Outline: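 CRE-bla CHO reporter cells treated with compound titration plus EC10 NKH 477 (water-soluble forskolin), incubated 3 h at 37 °C; CCF4 loading 2 h at room temperature, 460/530 nm emission ratio read, AC50 values derived for positive or negative modulators.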

SMILES	AC50
CCN(CCCNC(=O)CN(C)S(=O)(=O)c1cccc2nsnc12)c1ccccc1	15.8 µM [rising, single point]
CN(C)c1nc(-c2ccoc2)nc2ccccc12	10 µM [rising, partial curve]
COc1ccc(CCNC(=O)c2cc(-c3ccccc3OC)on2)cc1OC	0.316 µM [rising, single point]
O=C(CCc1nc(-c2ccccc2F)no1)NCCc1ccccc1Cl	3.16 µM [falling, full curve]
O=C(NCCCN1CCOCC1)NC12CC3CC(CC(C3)C1)C2	5.01 µM [falling, single point]
c1ccc(CN(CC2=NCCN2)c2ccccc2)cc1	10 µM [falling, partial curve, poor fit]
O=C(NCC1CCCO1)c1sc(=S)n2c1[nH]c(=O)c1ccc(C(=O)N3CCCCC3)cc12 (stereo not drawn)	1 µM [rising, partial curve]
O=C(Nc1ccc(Oc2ccc(NC(=O)C3CCCO3)cc2)cc1)C1CCCO1 (stereo not drawn)	0.398 µM [rising, partial curve]
CCC(C)Nc1nc2c(c(=O)[nH]c(=O)n2C)n1CCC(C)C (stereo not drawn)	10 µM [rising, partial curve]
CC1Cc2ccccc2N1C(=O)CSc1nc2c(c(=O)n(C)c(=O)n2C)n1Cc1ccccc1 (stereo not drawn)	2.51 µM [rising, full curve]
CCOC(=O)c1cccc2c1-c1ccccc1/C2=N/O	0.398 µM [falling, full curve, poor fit]
Cc1cc(N)n(-c2nc(-c3cccnc3)nc3ccccc23)n1	3.16 µM [rising, full curve]
COc1ccccc1-c1nc(Nc2ccncc2)c2ccccc2n1	5.01 µM [rising, single point]
CC(=O)n1nc(-c2ccco2)nc1N	0.316 µM [falling, partial curve]
N#Cc1c2n(c3c(=O)n(Cc4ccc(Cl)cc4)cnc13)CCCC2	10 µM [rising, partial curve]
COC(=O)c1ccccc1NC(=O)CSc1nc(NC(=O)c2ccccc2)c2c(C)c(C)oc2n1	3.16 µM [rising, partial curve]
CC(=O)Nc1nc2ncc(C=O)nc2c(=O)[nH]1	0.158 µM [rising, full curve, poor fit]
Cc1ccccc1S(=O)(=O)Cc1ccc(C(=O)NCCCOC(C)C)o1	25.1 µM [falling, single point]
O=c1c(-c2ccc(Cl)cc2)nc2cnc(N3CCOCC3)nc2n1C[C@H]1CCCO1	0.794 µM [rising, full curve]
Cn1c2ccccc2c2nnc(SCc3ccc4nonc4c3)nc21	6.31 µM [rising, partial curve]
COc1ccc(N2CCN(S(=O)(=O)c3ccc(OC)cc3)CC2)cc1	0.631 µM [rising, full curve]
CSc1nsc(SC)c1C(=O)OCC(F)(F)F	10 µM [rising, partial curve]
CCOc1ccc2nc(-c3ccc(OC)c(OC)c3)cc(C(=O)O)c2c1	12.6 µM [rising, single point]

SMILES	AC50
CN(Cc1ccccc1)Cc1nc2c(c(=O)n(C)c(=O)n2C)n1Cc1ccc(Cl)cc1	15.8 µM [rising, single point]
COc1ccccc1-c1nnc2sc(-c3ccc(N(C)C)cc3)nn12	0.398 µM [rising, full curve]
O=C(NCCN1CCN(c2ccccc2)CC1)c1cccc(Br)c1	0.1 µM [falling, full curve, poor fit]
N#CCc1ccc(NC(=O)Nc2cccc(Cl)c2)cc1	25.1 µM [rising, single point]
CCC/C=C(\CCC)C(NC(=O)OCC(C)C)c1ccc(C(=O)OC)cc1 (stereo not drawn)	5.01 µM [rising, single point]
COCCn1c(=O)c(-c2ccc(F)cc2)nc2cnc(N3CCOCC3)nc21	2.51 µM [rising, full curve]
Cn1c(=O)c(-c2ccc(Cl)cc2)nc2cnc(N3CCOCC3)nc21	5.01 µM [rising, partial curve]
CCOC(=O)CNC(=O)CSc1nc(N)cc(N)n1	15.8 µM [falling, single point]
COc1cc2cc(C)c(SCC(=O)N3CCOCC3)nc2cc1OC	12.6 µM [rising, single point]
O=C1NC(c2ccco2)Nc2sc3c(c21)CCN(Cc1ccccc1)C3 (stereo not drawn)	3.98 µM [rising, full curve]
COc1ccc(OC)c(C2C3CN(C(C)C)CC=C3C(C#N)=C(N)C2(C#N)C#N)c1 (stereo not drawn)	10 µM [rising, partial curve]
Cc1nc2ccccc2c(=O)n1/N=C/c1ccc(N(C)C)cc1	5.01 µM [falling, single point]
CCCCC[C@H](O)CCCC(=O)O	12.6 µM [falling, single point]
CCN1CCN(C(c2ccccc2OC)c2nnnn2C2CCCCC2)CC1 (stereo not drawn)	0.398 µM [falling, partial curve]
C/C(Cl)=C/Cn1c(=O)c2c(nc(Br)n2Cc2ccccc2)n(C)c1=O	0.398 µM [rising, single point]
Cn1c(=O)c2c(nc(SCCN3CCOCC3)n2Cc2cccc3ccccc23)n(C)c1=O	25.1 µM [rising, single point]
Cc1nc(NC(=O)c2ccc(Br)s2)sc1C(=O)N(C)C	25.1 µM [rising, single point]
CCC(C(=O)Nc1cc(C)nn1-c1nc(C)cc(C)n1)c1ccccc1 (stereo not drawn)	10 µM [rising, partial curve]
COc1ccc(S(=O)(=O)NCCCN2CCOCC2)c2ccccc12	0.126 µM [falling, full curve, poor fit]
CCCCc1ccc(-c2nc(-c3ccncc3)no2)cc1	0.794 µM [rising, full curve]
Cn1c(=NC(=O)CSCC(=O)N2CCCC2)sc2ccccc21	0.316 µM [falling, partial curve]
Cc1cccn2c(=O)c3cc(C(=O)NCc4cccnc4)c(=N)n(C(C)C)c3nc12	15.8 µM [rising, partial curve]
CCN(c1cccc(C(F)(F)F)c1)S(=O)(=O)c1ccc2c(c1)CCN2C(=O)C1CC1	12.6 µM [rising, partial curve]

A section from the list above, for reference:
SMILES	AC50
CCCCc1ccc(-c2nc(-c3ccncc3)no2)cc1	0.794 µM [rising, full curve]
Cn1c(=NC(=O)CSCC(=O)N2CCCC2)sc2ccccc21	0.316 µM [falling, partial curve]

3 entries already listed, arranged by count of non-hydrogen atoms, ascending.
SMILES	AC50
CCCCc1ccc(-c2nc(-c3ccncc3)no2)cc1	0.794 µM [rising, full curve]
CCC/C=C(\CCC)C(NC(=O)OCC(C)C)c1ccc(C(=O)OC)cc1 (stereo not drawn)	5.01 µM [rising, single point]
CCN1CCN(C(c2ccccc2OC)c2nnnn2C2CCCCC2)CC1 (stereo not drawn)	0.398 µM [falling, partial curve]

Continued:

SMILES	AC50
CCN(CC)CCCN1C(=O)c2oc3ccccc3c(=O)c2C1c1cc(OC)ccc1OC (stereo not drawn)	25.1 µM [falling, single point]
O=C(CN1C(=O)c2ccccc2C1=O)Nc1cccnc1	5.01 µM [falling, single point]
Cc1ccc2nc(NC(=O)C3CCN(S(=O)(=O)c4cccc5nsnc45)CC3)sc2c1	0.00316 µM [falling, full curve, poor fit]
O=C(NCc1cccnc1)c1cccc2c1C(=O)N(C1CCCCC1)C2	1 µM [rising, partial curve]
COC(=O)c1ccc(CSc2nc(C)nc3c2c(=O)n(C)c(=O)n3C)o1	2.51 µM [rising, full curve]
Cc1occc1C(=O)Nc1ccc2c(c1)OCO2	0.01 µM [falling, full curve]
COc1cccc2cc(C(C)N(CCCN3CCOCC3)C(=O)Nc3ccc(Cl)cc3)oc12 (stereo not drawn)	1.58 µM [rising, partial curve]
CC(=O)N1CCc2cc(S(=O)(=O)Nc3cccc(C(F)(F)F)c3)ccc21	2 µM [rising, full curve]
Cc1ccc(C)c(C(=O)CSc2n[nH]c(-c3ccncc3)n2)c1	0.316 µM [falling, partial curve]
Cc1ccc(-n2c(CSc3nc(C)cc(C)n3)nnc2SCC(=O)NCc2ccco2)cc1	25.1 µM [rising, single point]
N#Cc1c(-c2cccs2)cc(-c2cccnc2)nc1N	1.26 µM [rising, partial curve]
COc1nc(Nc2ccc3c(c2)OCO3)nc(OC)n1	2.51 µM [rising, full curve, poor fit]
CCS(=O)(=O)N1CCC(C(=O)NCCCN2CCCC2)CC1	0.0501 µM [falling, partial curve, poor fit]
Cn1c(=O)c2c(ncn2CC(=O)OCC(=O)NC2CCCc3ccccc32)n(C)c1=O (stereo not drawn)	25.1 µM [rising, single point]
CCOC(=O)C1CCN(C(c2cccc(F)c2)c2sc3nc(C)nn3c2O)CC1 (stereo not drawn)	12.6 µM [rising, single point]
O=c1c(CCc2ccccc2)nc2cnc(Oc3ccccc3)nc2n1C[C@H]1CCCO1	12.6 µM [rising, partial curve]
C=C(C)CSc1nc(C)c(Cc2ccccc2)c(=O)[nH]1	12.6 µM [rising, single point]
COC(=O)c1ccc(Oc2nc(NC(C)C)nc(SC)n2)cc1	12.6 µM [rising, single point]
CCN(CC)CCNc1ccc(CO)c2sc3ccccc3c(=O)c12	3.98 µM [rising, full curve, poor fit]
COc1ccc2[nH]cc(C(=O)CN3CCN(C/C=C/c4ccccc4)CC3)c2c1	25.1 µM [falling, single point]
Cc1c(NC(=O)C2CCCN2S(=O)(=O)c2ccc(Cl)cc2)c(=O)n(-c2ccccc2)n1C (stereo not drawn)	3.98 µM [falling, single point]
CC1(C)CC(=O)C2=C(C1)N(CCN1CCOCC1)C1=C(C(=O)CC(C)(C)C1)C2c1cccc(Cl)c1	10 µM [rising, partial curve]
